Measurements taken from patent publication US20130195919A1, “INDUCED DENDRITIC CELL COMPOSITIONS AND USES THEREOF” (PRESIDENT AND FELLOWS OF HARVARD COLLEGE, priority 2010, published 2013).
At least one structure is not confirmed: it was looked up by name or label, or the drawing left a doubt.

Columns and labels:
[1] = tested on: Foxp3+ T cells in the lymph node; experiment: Direct footpad injection of rapamycin, Foxp3+ T cells in lymph node; type: in vivo, mouse
naïve CD4+CD25− T cells = conditions: DCs treated with Rapamycin alone; cited from earlier work

For `CO[C@H]1C[C@@H]2CC[C@@H](C)[C@@](O)(O2)C(=O)C(=O)N2CCCC[C@H]2C(=O)O[C@H]([C@H](C)C[C@@H]2CC[C@@H](O)[C@H](OC)C2)CC(=O)[C@H](C)/C=C(\C)[C@@H](O)[C@@H](OC)C(=O)[C@H](C)C[C@H](C)/C=C/C=C/C=C/1C` [rapamycin, Rapamycin], the “CD25+Foxp3+ among transferred or endogenous Vα2+CD4+ cells in lymph nodes” value ([1]; rapamycin 1 ug alone or with OVAp 10 ug, hind footpad, five days later) is listed as “no effect could be observed”, the “CD25+Foxp3+ among Vα2+CD4+CD45.1+ cells in draining popliteal lymph nodes” value ([1]; rapamycin 1 ug hind footpad, polyclonal Tn) is listed as “no differences in the amount of Foxp3 could be detected” and the “conversion of naïve CD4+CD25− T cells into Treg cells by treated DCs” value (naïve CD4+CD25− T cells) is listed as “do not convert naïve CD4^+CD25^− T cells into Treg cells”.
